## Screening data, single-dose tests

Each number is a percent effect as filed. The controls that fix the scale are not given in the record; negative values are as filed. Compounds were drawn at random from those tested, without regard to their results. Two or more numbers in one place are separate tests of the same structure; such repeats can differ widely. A dash means the value is not listed here; it may have been measured.

T. brucei: 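Whole-parasite assay of Trypanosoma brucei over 72 hours; the read-out is not stated. Concentration: 30 µM. The record gives no direction; compounds that gave an IC50 in retests scored well above the rest, so higher reads as stronger inhibition. Values scatter widely below zero; nearly all retest evidence comes from the higher of the two concentrations used. Of about 64,000 compounds tested this way, about 940 (1.5%) reached 50% or more in at least one test.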
Leishmania in macrophages: 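Cell assay of Leishmania donovani living inside macrophages; the read-out is not stated. Compounds at 30 µM. The record gives no direction; compounds that gave an IC50 in retests scored well above the rest, so higher reads as stronger inhibition. About 69,000 compounds were tested under these conditions; 1.5% (about 1,000) showed 50% or more at least once.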
Toxoplasma: 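Assay of Toxoplasma gondii numbers, read through their beta-galactosidase reporter with a colour substrate. Tested at 10 µM. Higher reads as fewer parasites (inferred from which compounds were picked for retests). About 67,000 compounds were tested under these conditions; 0.38% (about 260) showed 50% or more at least once.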

| structure | T. brucei | Leishmania in macrophages | Toxoplasma |
|---|---|---|---|
| `Cc1cc(-c2ccc(C(=O)O)cc2)nc(C2CCN(C(C)C)CC2)n1` | -24.99% | -2.344% | -0.5837% |
| `CCc1ccc(CN2CCCC(c3nn(C)c(=O)n3CC)C2)nc1` (stereo not given) | -15.64% | 19.27% | 0.1739% |
| `CC(C)(C)C(=O)Cn1nc(-c2ccccc2F)ccc1=O` | 19.5% | 1.17% | -0.4782% |
| `Clc1ccc(CN2CCOC[C@H](Oc3cccnc3)C2)cc1` | 28.37% | 16.67% | 20.09% |
| `Cc1cnn(CC2CCCN2Cc2noc(C)n2)c1` (stereo not given) | 2.088% | 3.634% | -5.196% |
| `Fc1cnccc1CN1CCC2(CCN2c2ncccn2)C1.O=C(O)C(F)(F)F` (stereo not given) | -227% | 14.22% | 6.442% |
| `O=C(O)C(F)(F)F.[H][C@@]12COC[C@]1([H])[C@H](NC(=O)c1cccn1C)CN2Cc1ccsc1` | 9.185% | 18.91% | 2.479% |
| `c1cnc(NCCCOC2CCOCC2)nc1` | -26.81% | -1.908% | -9.66% |
| `Cc1ccc(-c2nc(CC3CCN(C)CC3)no2)cc1N1CCNC1=O` | -72.29% | -11.41% | 0.8673% |
| `Cc1ccc(N2CCC(C(O)c3cccs3)CC2)nn1` (stereo not given) | -56.91% | 13.66% | -3.048% |
| `COCc1c(Br)cccc1NC(=O)N(C)CCO` | -6.985% | 12.96% | -2.949% |
| `CCN(CC)S(=O)(=O)N(C)Cc1ccc2c(c1)OCCO2` | - | 7.941% | -1.71% |
| `CCC(=O)NCc1cc(Br)c(OC)c(OC)c1` | 25.67% | 10.78% | -1.982% |
| `O=C(CC1CCc2ccccc21)NC1(C(=O)O)CCOCC1` (stereo not given) | -48.61% | -9.517% | -20.89% |
| `CC1CN(CCc2ccccn2)CCN1c1ccc2nncn2n1` (stereo not given) | - | 19.73% | -1.92% |
| `Cc1nc2ncc3c(=O)n(C)ccc3n2n1` | -12.3% | -13.37% | -4.004% |
| `O=C(O)c1c[nH]c2cc(NS(=O)(=O)c3cc(F)ccc3Cl)ccc12` | - | 15.17% | 11.83% |
| `O=C(c1ccc(C(F)(F)F)cc1)N1C[C@@H](CN2CCCCC2)[C@@H](CO)C1` | -35.14% | -18.87% | 2.041% |
| `CC(C)COCCCNC(=O)NC(C)c1ccc(-n2cncn2)cc1` (stereo not given) | -34.04% | 29.69% | 5.609% |
| `O=C(O)c1cc(-c2cccnc2)cc(S(=O)(=O)N2CCCCCC2)c1` | 39.18% | -1.814% | -6.924% |
| `COc1cccc(CNC(=O)c2cccnc2N)c1` | - | 50.32% | 19.28% |
| `CCN(CC1CCOCC1)C(=O)Cn1ccccc1=O` | -1.586% | 18.23% | -5.049% |
| `[H][C@@]12C[C@H](c3ccncn3)O[C@@]1([H])CCN(c1cc(OC)ncn1)C2` | - | 101.1% | -3.711% |
| `CN1CCC(c2cccc(Cc3ccc(F)cc3)n2)CC1` | 22.86% | 44.36% | 15.31% |
| `CC(C)CCn1nc(CNc2ccc(Br)cc2)nc1O` | -6.111% | -15.33% | -12.45% |
| `O=C(CCOc1ccccc1F)N1CCC(O)CC1` | -41.83% | -68.2% | -6.002% |
| `O=c1[nH]c(-c2ccccc2)nc2c1CCN(S(=O)(=O)N1CCCC1)C2` | -14.23% | 23.25% | 18.92% |
| `CCN(CC)C(CNS(=O)(=O)c1ccc(C(N)=O)cc1)c1ccco1` (stereo not given) | 3.61% | 16.07% | 16.97% |
| `CNC(=O)CCc1cc(C2CCNCC2)nc(C)n1.Cl.Cl` | -6.665% | 20.99% and 12.05% | 7.949% |
| `[H][C@]12CC[C@]([H])(CC(=O)NC1)N2C(=O)CCc1ccc2c(c1)OCO2` | 6.652% | 28.17% | -30.75% |
| `CC1(C)CN(C(=O)Nc2cc(C(F)(F)F)c[nH]c2=O)CCO1` | -2.146% | -0.9469% | 6.715% |
| `O=C(NC(c1ccc(Cl)cc1)c1cccnc1)C1CC1` (stereo not given) | 4.031% | 32.37% | 18.73% |
| `CN(C)CC(=O)N1Cc2nc(C(=O)NCc3ccncc3)oc2C1` | 10.07% | 17.22% | 3.632% |
| `[H][C@]12CCCCN1CCC[C@H]2CNC(=O)Cn1ccc2ccc(F)cc21` | -24.1% | 48.36% | 8.76% |
| `COCCn1c(=O)n(C)c(=O)c2ccc(C3CCC(CN)CC3)nc21.Cl` (stereo not given) | 8.357% | 43.21% | 14.17% |
| `O=C(c1ccccc1)N1CC(C(=O)N2CCOCC2)C2(CCOCC2)C1` (stereo not given) | -30.75% | -4.618% and 3.488% | 0.7901% |
| `COc1ccccc1C(=O)N1CCN(CCc2scnc2C)CC1` | -45.29% | 5.837% | 3.864% |
| `Cn1cc(C(=O)CC2CCCN2C(=O)c2c[nH]c3ccccc23)cn1` (stereo not given) | 10.17% | 27.42% | -4.551% |
| `CSCCc1n[nH]c2c1CN(S(=O)(=O)c1cn(C)c(C)n1)CC2` | 5.388% | 13.55% | 29.1% |
| `Cc1ccccc1C1CCCN1C(=O)CN1CC2(CCNCC2)OC1=O` (stereo not given) | 12.42% | -12.76% | 0.3462% |
| `O=C(c1ccc(Cl)s1)N1CCC2(CNS(=O)(=O)c3cnccc3O2)C1` (stereo not given) | - | 16.48% | -3.07% |
| `[H][C@@]12CCN(Cc3ccsc3)C[C@]1(C(=O)N1CCCO1)CCO2` | -3.072% | 8.287% | -3.965% |
| `CN(Cc1n[nH]c2c1CCC2)C(=O)c1cc(-c2cccn2C)n[nH]1` | -13.47% | 20.72% | 16.65% |
| `O=S(=O)(C1CC1)N1CCC2(CN(c3ncccn3)C2)C1` | -34.01% | 11.87% | 25.95% |
| `Cc1nc(C)c(S(=O)(=O)NC(=O)c2cccs2)s1` | -19.3% | -6.982% | -6.414% |
| `O=C(NCCSC1CCCC1)c1cc(C2CC2)on1` | -16.52% | -5.763% | 0.06468% |
| `CC(NC(=O)N1CCCN(C)CC1)c1ccc(S(N)(=O)=O)cc1` (stereo not given) | -39.72% | -23.09% | 4.076% |
| `CCc1nc(C2CCCN2C(=O)CCc2nc(C3CC3)no2)no1` (stereo not given) | -11.41% | -30.5% | 12.89% |
| `O=C(O)C(F)(F)F.O=C(O)C(F)(F)F.O=c1ccc2c(n1Cc1ccncc1)CCN(Cc1ccoc1)CC2` | -36.06% | 7.941% | 2% |
| `Cc1cc(F)cc2c(N3CCS(=O)(=O)CC3)c(C#N)cnc12` | 6.61% | 5.668% | 7.045% |
| `CCOc1ccccc1CN(CC)Cc1ccc(S(C)(=O)=O)cc1` | -2.318% | 16% | -2.875% |
| `N#Cc1ccc(C(=O)N2CCn3cc(CN4CCCCC4)nc3C2)cc1` | -375.1% | 4.72% | -55.89% |
| `N#Cc1nccnc1N1CCC(C(O)c2cccs2)CC1` (stereo not given) | -58.13% | 30.26% | 6.067% |
| `O=C(CCOc1cccc(F)c1)N1CCCC(n2cccn2)C1` (stereo not given) | - | 26.62% | 15.26% |
| `Cc1cccc(CN2CCC3(CCN(Cc4ccccn4)C3)C2=O)c1.O=C(O)C(F)(F)F.O=C(O)C(F)(F)F` (stereo not given) | -22.95% | 32.3% | 3.696% |
| `CSc1nccc(NCc2cc3n(n2)CCCN(C(=O)C2CCC2)C3)n1` | -31.15% | 21.35% | -28.18% |
| `CC(C)Cn1c(=O)n(CCn2cc(Cl)cn2)c2cc(C(=O)O)cnc21` | -29.66% | 16.4% | 8.233% |
| `CC(NC(=O)Cn1cc(C(N)=O)c(-c2ccccc2)n1)C1CC1` (stereo not given) | -13.41% | 12.7% | 6.065% |
| `COCCNc1nc2c(c(NCc3ccncc3)n1)CCNCC2` | -10.99% | 36.76% | -2.077% |
| `Cn1nnc2cc(C(=O)NS(=O)(=O)c3cccc(C#N)c3)ccc21` | -43.93% | 11.3% | -38.78% |
| `CCc1noc(C(C)N2CCC(N3CCCC3)CC2)n1` (stereo not given) | -21.12% | 6.239% | 12.11% |
| `CCn1cc(NC(=O)CN2CCC(Oc3ccccc3C)CC2)c(C)n1` | 12.26% | -23.64% | 4.811% |
| `Cc1nnc(NC(=O)c2c3c(nn2C2CCS(=O)(=O)C2)CCC3)s1` (stereo not given) | 4.255% | 24.06% | -9.717% |
| `COCCn1ccc2c(NC(=O)c3n[nH]c4c3CCC4)cccc21` | 17.56% | 39.16% | - |
| `CC(=O)N[C@@H]1C[C@H](c2ccc(OCCO)cc2)OC2(CCOCC2)C1` | -9.227% | -3.053% | -0.7731% |
| `CC(NC(=O)N(C)C1CC1)c1ccc(Oc2cccnc2)c(F)c1` (stereo not given) | -17.08% | 4.744% | - |
| `Cn1c(Cn2ncc(N3CCCC3)cc2=O)nc2ccccc21` | 0.4699% | 13.34% | 8.396% |
| `CS(=O)(=O)N1CCC2(CC1)CC(OCC1CCOCC1)CO2` (stereo not given) | -15.55% | 13.66% | 4.451% |
| `[H][C@@]12CCN(Cc3nccs3)C[C@]1(C(=O)NCc1ccco1)CCO2` | 13.95% | 24.81% | 0.169% |
| `O=C(N1CCOCC1)N1CCN(c2ccnc3ccsc23)CC1` | -32.02% | 10.48% | 22.75% |
| `CC(=O)N1CC(=O)N(c2cnn(C)c2)CC12CCN(CC1CC1)C2.O=C(O)C(F)(F)F` (stereo not given) | -19.7% | -5.86% | -24.4% |
| `COc1ccc(CN(Cc2cncn2C)CC2CCCO2)cc1.O=C(O)CC(O)(CC(=O)O)C(=O)O` (stereo not given) | 9.028% | 26.21% and 12.17% | 21.1% |
| `O=C1C(CS(=O)(=O)Nc2ccc(Br)cc2)=NC(=O)n2cccc21` | 4.471% | -27.67% | -4.518% |

7 of the entries, repeated:

structure,T. brucei,Leishmania in macrophages,Toxoplasma
CS(=O)(=O)N1CCC2(CC1)CC(OCC1CCOCC1)CO2 (stereo not given),-15.55%,13.66%,4.451%
CN(C)CC(=O)N1Cc2nc(C(=O)NCc3ccncc3)oc2C1,10.07%,17.22%,3.632%
COc1ccc(CN(Cc2cncn2C)CC2CCCO2)cc1.O=C(O)CC(O)(CC(=O)O)C(=O)O (stereo not given),9.028%,26.21% and 12.17%,21.1%
c1cnc(NCCCOC2CCOCC2)nc1,-26.81%,-1.908%,-9.66%
COCc1c(Br)cccc1NC(=O)N(C)CCO,-6.985%,12.96%,-2.949%
CN1CCC(c2cccc(Cc3ccc(F)cc3)n2)CC1,22.86%,44.36%,15.31%
Cc1cccc(CN2CCC3(CCN(Cc4ccccn4)C3)C2=O)c1.O=C(O)C(F)(F)F.O=C(O)C(F)(F)F (stereo not given),-22.95%,32.3%,3.696%

Measurements from “University of Dundee, Small-Polar-MMV Screening Library” (2021), ChEMBL document CHEMBL3988442.